No constants are given. Whether binding was seen depends on the method and setting. Binding seen in cells or lysates may run through a third protein. Some results given as binding are weak or reduced against the parent protein; the word gives no strength. Where a sequence is shown, tags or fusion partners need not be part of it.
Columns and labels:
Experiment in all cases: co-IP
GFP-tagged Strumpellin = biological target: T1, GFP-tagged Strumpellin (UniProt Q12768)
T1 sequence: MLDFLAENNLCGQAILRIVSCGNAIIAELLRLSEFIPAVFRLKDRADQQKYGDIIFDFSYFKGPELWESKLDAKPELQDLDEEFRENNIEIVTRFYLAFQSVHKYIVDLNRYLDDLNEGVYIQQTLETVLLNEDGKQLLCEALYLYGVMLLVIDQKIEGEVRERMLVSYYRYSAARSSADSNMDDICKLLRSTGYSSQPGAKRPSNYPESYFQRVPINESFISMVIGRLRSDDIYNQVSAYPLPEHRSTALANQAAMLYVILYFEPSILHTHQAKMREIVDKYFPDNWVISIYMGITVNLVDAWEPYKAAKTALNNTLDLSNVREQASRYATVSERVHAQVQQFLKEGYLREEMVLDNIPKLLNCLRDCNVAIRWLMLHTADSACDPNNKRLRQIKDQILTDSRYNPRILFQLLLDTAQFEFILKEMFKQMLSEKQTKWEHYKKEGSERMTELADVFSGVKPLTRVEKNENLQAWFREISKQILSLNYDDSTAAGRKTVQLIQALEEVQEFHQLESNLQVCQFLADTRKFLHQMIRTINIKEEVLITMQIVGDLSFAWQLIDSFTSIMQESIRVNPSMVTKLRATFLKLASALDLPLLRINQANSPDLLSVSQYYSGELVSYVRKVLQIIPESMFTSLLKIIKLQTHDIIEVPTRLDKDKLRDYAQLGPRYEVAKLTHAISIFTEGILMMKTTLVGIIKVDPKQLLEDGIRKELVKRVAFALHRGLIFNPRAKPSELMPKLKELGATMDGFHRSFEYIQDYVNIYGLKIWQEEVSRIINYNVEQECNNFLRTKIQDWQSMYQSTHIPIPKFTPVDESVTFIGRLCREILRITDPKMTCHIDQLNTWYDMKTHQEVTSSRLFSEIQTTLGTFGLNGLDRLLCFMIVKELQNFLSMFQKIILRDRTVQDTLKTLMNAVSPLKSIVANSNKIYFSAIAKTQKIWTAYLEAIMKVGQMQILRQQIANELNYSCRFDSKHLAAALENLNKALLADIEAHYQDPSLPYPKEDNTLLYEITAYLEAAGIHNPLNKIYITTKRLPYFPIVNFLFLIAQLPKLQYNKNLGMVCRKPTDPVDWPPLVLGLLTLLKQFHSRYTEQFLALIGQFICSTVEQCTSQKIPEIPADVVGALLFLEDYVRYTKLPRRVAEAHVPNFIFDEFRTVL

The chains behind the UniProt entries cited, without tags or fusion partners.
UniProt Q9BVG3: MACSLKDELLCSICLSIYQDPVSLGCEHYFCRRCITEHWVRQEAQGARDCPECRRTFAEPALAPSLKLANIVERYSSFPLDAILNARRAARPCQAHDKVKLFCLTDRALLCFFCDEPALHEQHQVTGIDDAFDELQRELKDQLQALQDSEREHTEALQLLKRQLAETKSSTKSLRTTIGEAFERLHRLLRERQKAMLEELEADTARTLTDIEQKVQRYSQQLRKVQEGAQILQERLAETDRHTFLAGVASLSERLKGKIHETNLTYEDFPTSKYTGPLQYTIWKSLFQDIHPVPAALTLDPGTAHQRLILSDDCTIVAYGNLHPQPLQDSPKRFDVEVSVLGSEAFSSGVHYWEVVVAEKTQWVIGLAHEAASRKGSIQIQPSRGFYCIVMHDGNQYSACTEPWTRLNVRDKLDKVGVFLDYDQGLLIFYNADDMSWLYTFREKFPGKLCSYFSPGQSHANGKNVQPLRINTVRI

GFP-WASH1 = biological target: T2, GFP-WASH1 (UniProt A8K0Z3)
T2 sequence: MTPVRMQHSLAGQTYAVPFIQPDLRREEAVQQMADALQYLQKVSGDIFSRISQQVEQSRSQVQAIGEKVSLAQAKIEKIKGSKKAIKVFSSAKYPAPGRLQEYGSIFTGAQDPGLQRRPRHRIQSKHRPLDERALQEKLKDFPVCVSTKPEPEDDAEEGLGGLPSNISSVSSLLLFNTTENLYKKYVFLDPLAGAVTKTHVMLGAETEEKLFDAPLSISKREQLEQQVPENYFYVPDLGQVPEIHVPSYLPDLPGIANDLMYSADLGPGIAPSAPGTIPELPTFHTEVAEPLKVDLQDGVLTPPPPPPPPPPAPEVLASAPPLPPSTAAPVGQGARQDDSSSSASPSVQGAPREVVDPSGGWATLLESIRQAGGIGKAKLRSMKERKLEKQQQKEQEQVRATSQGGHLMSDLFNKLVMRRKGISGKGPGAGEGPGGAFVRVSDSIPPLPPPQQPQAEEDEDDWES

GFP-tagged CCDC53 = biological target: T3, GFP-tagged CCDC53 (UniProt Q9Y3C0)
T3 sequence: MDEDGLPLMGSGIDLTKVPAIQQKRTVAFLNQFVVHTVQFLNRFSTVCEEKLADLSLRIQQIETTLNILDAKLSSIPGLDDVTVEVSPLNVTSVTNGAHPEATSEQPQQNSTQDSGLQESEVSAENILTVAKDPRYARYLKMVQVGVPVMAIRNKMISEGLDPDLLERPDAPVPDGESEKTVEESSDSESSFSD

GFP-tagged SWIP = biological target: T4, GFP-tagged SWIP (UniProt Q2M389)
T4 sequence: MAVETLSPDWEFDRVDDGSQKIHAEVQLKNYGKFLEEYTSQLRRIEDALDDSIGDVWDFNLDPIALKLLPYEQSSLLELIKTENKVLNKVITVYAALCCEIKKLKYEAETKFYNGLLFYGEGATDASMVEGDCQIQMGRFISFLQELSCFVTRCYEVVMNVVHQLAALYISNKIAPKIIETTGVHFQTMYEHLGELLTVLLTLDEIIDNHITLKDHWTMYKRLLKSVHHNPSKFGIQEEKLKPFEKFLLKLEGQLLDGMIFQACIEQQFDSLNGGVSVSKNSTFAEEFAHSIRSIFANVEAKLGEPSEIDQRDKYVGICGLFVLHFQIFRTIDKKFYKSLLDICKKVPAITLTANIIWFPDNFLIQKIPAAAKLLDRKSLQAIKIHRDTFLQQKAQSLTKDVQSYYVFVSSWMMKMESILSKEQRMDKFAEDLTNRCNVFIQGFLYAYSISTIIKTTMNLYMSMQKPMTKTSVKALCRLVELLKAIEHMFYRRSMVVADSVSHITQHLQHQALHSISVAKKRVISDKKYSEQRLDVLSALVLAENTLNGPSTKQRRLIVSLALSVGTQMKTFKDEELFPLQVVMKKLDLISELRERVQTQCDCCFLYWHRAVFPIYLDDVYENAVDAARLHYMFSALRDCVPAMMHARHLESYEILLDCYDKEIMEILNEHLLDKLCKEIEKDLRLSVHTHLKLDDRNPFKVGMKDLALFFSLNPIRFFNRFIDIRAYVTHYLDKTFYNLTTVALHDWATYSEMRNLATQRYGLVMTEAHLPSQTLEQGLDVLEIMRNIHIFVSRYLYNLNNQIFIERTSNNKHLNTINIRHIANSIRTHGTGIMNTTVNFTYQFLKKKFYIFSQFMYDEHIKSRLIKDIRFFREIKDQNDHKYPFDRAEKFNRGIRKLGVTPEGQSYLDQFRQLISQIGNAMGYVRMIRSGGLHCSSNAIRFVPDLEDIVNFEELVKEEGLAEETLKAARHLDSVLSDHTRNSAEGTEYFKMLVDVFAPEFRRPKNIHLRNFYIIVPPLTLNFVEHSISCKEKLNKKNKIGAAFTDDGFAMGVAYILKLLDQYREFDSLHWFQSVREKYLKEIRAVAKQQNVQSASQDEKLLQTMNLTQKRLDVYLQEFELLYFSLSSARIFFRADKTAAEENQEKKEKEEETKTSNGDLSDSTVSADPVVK

Measured: binding

TRIM62-Myc (from UniProt Q9BVG3 1-475)
binds: all assays above
